## Assay results

Source: PubChem BioAssay AID1053133 (Broad Institute, 2014).

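Vaccinia-infected cells with a two-color viral stage reporter; Venus fluorescence read on a plate reader; the cell line is not named here; timing not stated here. The test concentration is not given here. Percent change in Venus reporter signal; lower (more negative) values mean stronger inhibition of that viral stage.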

Values are in %. The controls that fix the scale are not given here. Common to all entries: measured here: Venus reporter, other viral stage. Part of the compounds only, not a random draw; the main read-out is not listed here.

structure | activity change (Venus) (%)
O=C(C[C@@H]1CC[C@@H]2[C@H](COC[C@H](O)CN2C(=O)c2ccccc2F)O1)NCc1ccc(-c2ccccc2)cc1 | -51.62
CN1C(=O)c2cc(NC(=O)c3ccc(F)c(F)c3)ccc2OC[C@H]2O[C@@H](CC(=O)N[C@@H]3CCN(Cc4ccccc4)C3)CC[C@H]21 | -44.55
C[C@H](CO)N1C[C@H](C)[C@@H](CN(C)Cc2ccc(Oc3ccccc3)cc2)Oc2ccc(NC(=O)C3CCCCC3)cc2CC1=O | -21.39
COc1ccc(-c2ccc(C3[C@@H]4CN(Cc5cccc(OC)c5)C[C@H]3N4)cc2)cc1 (stereo partly shown) | -25.05
CC(C)CC#Cc1ccc2c(c1)O[C@H](CN(C)Cc1cccnc1)[C@H](C)CN([C@@H](C)CO)S2(=O)=O | -55.05
O=C(C1CCOCC1)N1CC(=O)N2[C@@H](CO)[C@@H](c3ccc(C#Cc4cccc(F)c4)cc3)[C@@H]2C1 | -44.43
C[C@H](CO)N1C[C@H](C)[C@@H](CN(C)CC2CCCCC2)Oc2ccc(NC(=O)Nc3ccc(F)cc3)cc2CC1=O | -25.58
C[C@H](CO)N1C[C@H](C)[C@@H](CN(C)Cc2ccc(C(F)(F)F)cc2)OCCCC[C@H](C)Oc2ccc(N(C)C)cc2C1=O | -37.55
C[C@@H]1CN([C@@H](C)CO)C(=O)c2c(c3ccccc3n2C)-c2ccccc2CO[C@H]1CN(C)C(=O)Nc1cccc(F)c1 | -32.34
C[C@H]1CN([C@@H](C)CO)S(=O)(=O)c2ccc(C#CC3CCCC3)cc2O[C@@H]1CN(C)Cc1cccnc1 | -73.1
CCCNC(=O)N1CC2(CN(Cc3cccc(F)c3)C2)c2c([nH]c3cc(OC)ccc23)[C@H]1CO | -47.35
Cc1ccc(S(=O)(=O)N(C)C[C@H]2OCCCC[C@H](C)Oc3ccc(NS(=O)(=O)c4ccc(Cl)cc4)cc3C(=O)N([C@H](C)CO)C[C@@H]2C)cc1 | -38.07
C[C@H](CO)N1C[C@H](C)[C@@H](CN(C)Cc2ccc(Cl)c(Cl)c2)Oc2c(NC(=O)c3cnccn3)cccc2C1=O | -18.64
CC(C)CC#Cc1ccc([C@@H]2[C@H]3CN(S(=O)(=O)c4ccccc4)CC(=O)N3[C@H]2CO)cc1 | -49.33
CCCC#Cc1ccc2c(c1)O[C@@H](CN(C)Cc1ccncc1)[C@@H](C)CN([C@H](C)CO)S2(=O)=O | -24
C[C@@H](NC(=O)C[C@H]1CC[C@H]2[C@@H](COC[C@H](O)CN2C(=O)Nc2cccc(Cl)c2)O1)c1ccccc1 | -39.69
C[C@@H]1CN([C@@H](C)CO)S(=O)(=O)c2ccc(C#Cc3ccccc3)cc2O[C@H]1CN(C)C(=O)CN(C)C | -36.6
C[C@H]1CN([C@@H](C)CO)C(=O)c2cccc(NC(=O)C3CCOCC3)c2O[C@@H]1CN(C)Cc1ccc(Cl)c(Cl)c1 | -44.98
COc1ccccc1-c1ccc2c(c1)O[C@H](CN(C)C(=O)Nc1cccc(F)c1)[C@@H](C)CN([C@@H](C)CO)S2(=O)=O | -48.78
COCC(=O)N1CC2(CCN(Cc3ccc(Cl)cc3)CC2)c2c([nH]c3cc(OC)ccc23)[C@@H]1CO | -43.26
COc1ccc(C#Cc2ccc([C@@H]3[C@@H](CO)N4CCCCN(C)C[C@@H]34)cc2)cc1 | -82.61
COc1ccc(NC(=O)Nc2ccc3c(c2)C(=O)N([C@@H](C)CO)C[C@H](C)[C@@H](CN(C)Cc2ccc4c(c2)OCO4)OCCCC[C@H](C)O3)cc1 | -51.44
COc1ccc(S(=O)(=O)Nc2ccc3c(c2)C(=O)N([C@@H](C)CO)C[C@H](C)[C@H](CN(C)Cc2ccc(Cl)c(Cl)c2)O3)cc1 | -26.58
C[C@@H]1CN([C@H](C)CO)S(=O)(=O)c2ccc(C#Cc3ccncc3)cc2O[C@H]1CN(C)C(=O)C1CCC1 | -20.54
COc1ccc2c3c([nH]c2c1)[C@@H](CO)N(C(=O)c1cccc(F)c1)CC31CCN(C(=O)c2cccc(F)c2)CC1 | -30.19
COc1ccc(S(=O)(=O)N(C)C[C@@H]2OCCCC[C@@H](C)Oc3ccc(NS(=O)(=O)c4ccccc4)cc3C(=O)N([C@H](C)CO)C[C@H]2C)cc1 | -25.79
CC(C)C#Cc1ccc2c(c1)O[C@@H](CN(C)Cc1ccncc1)[C@H](C)CN([C@H](C)CO)S2(=O)=O | -43.59
COc1ccccc1C#Cc1cnc2c(c1)C(=O)N([C@H](C)CO)C[C@H](C)[C@H](CN(C)C(=O)c1ccc3c(c1)OCO3)O2 | -25.46
CO[C@H]1CN(C)C(=O)c2ccc(NC(=O)C3CC3)cc2OC[C@H](C)N(Cc2cc(F)ccc2F)C[C@H]1C | -28.98

Some entries from above, unchanged:

structure,activity change (Venus) (%)
COc1ccc2c3c([nH]c2c1)[C@@H](CO)N(C(=O)c1cccc(F)c1)CC31CCN(C(=O)c2cccc(F)c2)CC1,-30.19
C[C@H]1CN([C@@H](C)CO)C(=O)c2cccc(NC(=O)C3CCOCC3)c2O[C@@H]1CN(C)Cc1ccc(Cl)c(Cl)c1,-44.98
CC(C)CC#Cc1ccc2c(c1)O[C@H](CN(C)Cc1cccnc1)[C@H](C)CN([C@@H](C)CO)S2(=O)=O,-55.05